Taken from: PubChem BioAssay AID1224830 (NIAID, 2016)
In all, the deposit lists about 18,000 reagents; below is a part drawn at random. In the full data, about 2,900 (16%) were called active. 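Calls are made per well; low scores hint the gene aids the LPS response, high scores that it dampens it.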 A number with no mark means an inactive call. Repeated entries: four replicate wells of each siRNA pool.

- Screen: 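Regulators of TLR4 signalling towards TNF-alpha in macrophage-like cells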 (primary screen)
- Cells: human THP-1 monocytic leukaemia cells, TNF dual-luciferase reporter clone, PMA-differentiated to macrophage-like cells
- Reagents: siRNA pool against human genes, 50 nM
- Timing: LPS for 4 h, given about 3 days after siRNA transfection
- Conditions: bacterial LPS (TLR4 ligand), 10 ng/ml
- Detection: 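Ratio of firefly to renilla light, scaled to the plate median and expressed as a robust z-score per replicate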
- Direction: TNF reporter robust z-score: higher = stronger TNF reporter response to LPS
- Hit rule: 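Each well counts as active if its z-score is over 2.8 or under -1.5; controls are left without a call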

Target gene	TNF reporter robust z-score
BZW2	-1.41
BZW2	1
BZW2	0.62
BZW2	0.83
IGFBP7	-1.24
IGFBP7	-0.11
IGFBP7	-1.16
IGFBP7	-0.92
TMEM200B	-1.33
TMEM200B	-2.05 (active)
TMEM200B	-2 (active)
TMEM200B	-1.18
PAN3	-0.47
PAN3	-0.42
PAN3	-0.08
PAN3	0.34
PAGE5	-0.98
PAGE5	-0.77
PAGE5	-0.91
PAGE5	-0.59
GPR171	-0.32
GPR171	0
GPR171	-0.02
GPR171	-0.5
RPLP0	-0.65
RPLP0	1.18
RPLP0	0.16
RPLP0	2.22
H2AC16	1.17
H2AC16	-0.53
H2AC16	0.08
H2AC16	0.09
MED12	-0.45
MED12	1.67
MED12	1.7
MED12	2.16
PHTF2	-0.74
PHTF2	-0.13
PHTF2	-0.68
PHTF2	0.02
MAP3K7	-1.31
MAP3K7	-1.95 (active)
MAP3K7	-1.62 (active)
ADGRF3	1.24
ADGRF3	0.45
ADGRF3	0.63
ADGRF3	1.19
NOLC1	-1.63 (active)
NOLC1	-0.9
NOLC1	-0.23
NOLC1	-1.37
CD14	-1.54 (active)
CD14	-1.32
CD14	-1.73 (active)
CD14	-1.52 (active)
ASAH2	0.12
ASAH2	-0.31
ASAH2	-0.94
ASAH2	0.33
HOXC4	1.1
HOXC4	1.3
HOXC4	-0.41
HOXC4	1.33
VWA8	-0.1
VWA8	-0.55
VWA8	-0.28
VWA8	1.66
UBL3	-0.97
UBL3	0.46
UBL3	-0.54
UBL3	-0.13
MAB21L4	-0.44
MAB21L4	-0.17
MAB21L4	0.03
MAB21L4	-0.38
CCT7	1.09
CCT7	0.91
CCT7	0.42
CCT7	1.43
CCDC120	-1.15
CCDC120	-1.22
CCDC120	-1.16
CCDC120	-1.09
NSUN2	-0.53
NSUN2	0.22
NSUN2	0.21
NSUN2	-1.15
FBXO43	-1.24
FBXO43	0.16
FBXO43	-1.34
FBXO43	-0.19
PBX4	-1.33
PBX4	-0.81
PBX4	-0.9
PBX4	-0.95
RBFOX1	0.6
RBFOX1	1.43
RBFOX1	-0.13
RBFOX1	1.37
RNF167	-0.96
RNF167	-1.47
RNF167	-1.4
RNF167	-0.54
CMAS	-0.87
CMAS	-0.42
CMAS	-0.31
CMAS	-0.07
SPDEF	-0.79
SPDEF	-0.5
SPDEF	-0.7
SPDEF	0.76

6 entries from above in another layout.
| Target gene | TNF reporter robust z-score |
| --- | --- |
| PBX4 | -0.81 |
| PBX4 | -0.9 |
| PBX4 | -0.95 |
| RBFOX1 | 0.6 |
| RBFOX1 | 1.43 |
| RBFOX1 | -0.13 |
